This is one part of the list. Shown are side measurements of this screen, not its main read-out; they come without a call. The list favours compounds with an active or inconclusive main result. Words in brackets tell the shape of the fitted curve; partial curves, single points and poor fits give uncertain potencies.

The assay in a line: qHTS Assay to Find Inhibitors of Chronic Active B-Cell Receptor Signaling. Particulars: ABC-DLBCL IkBa-CBG/CBR reporter, luminescence ratio (green luciferase fused to IkBa over red control in TMD8 lymphoma cells), 4 h. The essentials: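 TMD8 ABC-DLBCL cells carrying doxycycline-inducible green luciferase fused to IkappaBalpha plus unfused red luciferase were exposed to compounds (up to 46 uM) for 4 hrs at 37C. Activity came from the overlap-corrected green/red luminescence ratio.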

Where [1] appears, read: measured here: CBR red luminescence, cell number.
Where [2] appears, read: measured here: IkBa-CBG green luminescence.

As to `Cc1cc(C)n(Cc2ccc(C(=O)N/N=C/c3ccc(-c4ccc([N+](=O)[O-])cc4)o3)o2)n1`, under setting [1], the half-maximal activity concentration (AC50) was 7.94 µM [rising, partial curve]. As to `Cc1ccc(Oc2nc3ccccc3n3cccc23)cc1`, the AC50 under setting [1] was 7.31 µM [rising, partial curve]. As for `CCOc1ccc(NC(=O)N(CCN(C)C)C(C)c2cccnc2)cc1` (stereo unspecified), the concentration at half-maximal activity (AC50) under setting [1] is 20 µM [rising, single point]. Same read-out and setting: for `Cc1ccccc1OCC(=O)NN1Cc2ccccc2C1=N` the value was 6.51 µM [rising, partial curve, poor fit]. The same measure, in the same setting: for `COc1ccc(CCNc2oc(-c3ccccc3OC)nc2C#N)cc1` the value was 29.1 µM [falling, single point]; for `Cc1ccc(Cl)cc1N1CCN(C(=O)c2ccc(CS(=O)Cc3ccc(Cl)cc3)o2)CC1` (stereo unspecified), 15.8 µM [falling, single point]. Turning to `CCOC(=O)c1cc(C(=O)Nc2cccc(C)c2)nn1C`, the AC50 under setting [1] is 12.6 µM [falling, partial curve]. Same read-out and setting: for `CC(=O)NCCOc1cccc2ccccc12` the value was 8.2 µM [rising, single point]. As to `COc1cccc(NC(=S)NN=C2CCCCCC2)c1`, the concentration at half-maximal activity (AC50) is, setting by setting: under setting [1], 0.794 µM [falling, full curve]; under setting [2], 25.1 µM [falling, single point].

For the molecule `Cc1ccc(SCC(=O)Nc2ncc(C)s2)cc1`, the half-maximal activity concentration (AC50) under setting [1] is 12.6 µM [falling, partial curve, poor fit]. Regarding `COc1ccc(-c2noc(CSc3nc(N)cc(=O)[nH]3)n2)cc1OC`, the AC50 under setting [1] is 10 µM [rising, partial curve, poor fit].

Regarding `O=C(COc1ccc(C(=O)c2ccccc2)cc1)NCc1ccc(F)cc1`, the AC50 is, setting by setting: under setting [1], 3.26 µM [rising, single point]; under setting [2], 3.26 µM [falling, full curve]. Take `CCOC(=O)Cc1csc(NC(=O)COc2ccccc2)n1`: the half-maximal activity concentration (AC50) under setting [1] was 29.1 µM [falling, single point]. Still for that read-out and setting: for `CNc1cc([N+](=O)[O-])ccc1OCc1ccccc1` the value was 1 µM [rising, partial curve, poor fit]; for `O=C(CNC(=O)c1ccc(-c2ccccc2)cc1)OCc1ccc(Br)cc1`, 29.1 µM [rising, single point]. As for `N#Cc1cc(-c2ccccc2)nnc1Sc1ccccc1`, the half-maximal activity concentration (AC50) under setting [1] is 0.517 µM [rising, full curve, poor fit]. In the case of `Cc1ccc(/C=N/NC(=O)NC2CCCCC2)o1`, under setting [1], the AC50 is 0.398 µM [falling, full curve, poor fit].

`CCOc1ccc(N2C(=O)c3cccnc3C2Nc2ccc(F)cc2)cc1` (stereo unspecified): the half-maximal activity concentration (AC50) under setting [1] is 0.447 µM [falling, full curve, poor fit]. For `COc1cccc(-c2ccc(SCC(=O)c3ccccc3)nn2)c1`, the concentration at half-maximal activity (AC50) under setting [1] is 35.5 µM [falling, single point]. Turning to `Cc1ccc(/C=C2/SC(=S)N(CCC(=O)N3CCN(c4ccccc4)CC3)C2=O)cc1`, the concentration at half-maximal activity (AC50) under setting [1] was 16.4 µM [falling, single point]. The same measure, in the same setting: the result for `Cc1ccc(NC(=O)COC(=O)CN2CSCC2=O)cc1C` reads 12.6 µM [rising, partial curve]. The same measure, in the same setting: for `COC(=O)c1ccc2[nH]c(CO)c(-c3ccccc3)c2c1` the value was 35.5 µM [falling, single point].

Consider `CCN(CC)CCN(C)C1CCC(c2ccccc2)CC1` (stereo unspecified), for which, under setting [1], the AC50 is 32.6 µM [falling, single point]. As for `Cc1nc(-c2ccc(S(=O)(=O)Nc3ccc(Br)cc3Cl)s2)cs1`, the concentration at half-maximal activity (AC50) under setting [1] was 15.8 µM [rising, single point]. Still for that read-out and setting: for `CC(C)C(C(=O)O)N1C(=O)/C(=C/C=C/c2ccco2)SC1=S` (stereo unspecified) the value was 17.8 µM [falling, single point]. The same measure, in the same setting: the result for `C=CCOC(=O)C1=C[C@@H](C2CCCCC2)C[C@@H](OCc2ccc(CO)cc2)O1` reads 22.4 µM [rising, single point]; that for `Cc1ccc(C)c(S(=O)(=O)N2CCCOC2CNC(=O)C(=O)NCc2ccncc2)c1` (stereo unspecified), 0.447 µM [falling, partial curve, poor fit].

On to `Cc1cccc(NC(=O)CSc2c3c(nc4ccccc24)CCC3)n1`, for which, under setting [1], the half-maximal activity concentration (AC50) was 3.98 µM [falling, partial curve, poor fit]. Consider `CCC(C)Sc1cccc(-c2nc3cc(C)ccn3c2NCc2ccccc2)c1` (stereo unspecified), for which the half-maximal activity concentration (AC50) was 29.1 µM [falling, single point] under setting [1] and 16.4 µM [rising, single point] under setting [2]. With `Cc1nc(NC(=S)Nc2ccccc2)sc1C`, the AC50 is, setting by setting: under setting [1], 7.08 µM [falling, partial curve]; under setting [2], 3.98 µM [falling, full curve].

As for `COc1cc(/C=C/C(=O)N(Cc2ccccc2)c2ccccn2)cc(OC)c1OC`, the AC50 under setting [1] is 3.66 µM [rising, partial curve, poor fit].

Consider `Cc1nc(NC(=O)/C=C/c2ccccc2)n[nH]1`, for which, under setting [1], the AC50 is 18.4 µM [falling, partial curve]. Consider `O=C(CCN1C(=O)c2ccccc2C1=O)Nc1ccccn1`, for which the AC50 under setting [1] was 29.1 µM [falling, single point]. Turning to `CCOc1ncccc1C(=O)Nc1cccc(S(=O)(=O)N2CCCCC2)c1`, the half-maximal activity concentration (AC50) under setting [1] was 2.59 µM [falling, partial curve, poor fit]. On the same count and under the same terms, the result for `CCOC(=O)c1sc(NC(=O)CSc2ncn[nH]2)c(C#N)c1C` reads 1.3 µM [rising, full curve, poor fit]; that for `CCOC(=O)C(C)Sc1ncnc2c1nnn2-c1ccc(F)cc1` (stereo unspecified), 11.2 µM [falling, single point].

`N#Cc1c(NC(=O)c2cccnc2)sc2c1CCC2`: the AC50 under setting [1] is 32.6 µM [falling, single point].

Regarding `Cc1cc(-c2ccc(C)c(S(=O)(=O)NCCCN3CCN(c4ccccc4)CC3)c2)on1`, the AC50 under setting [1] was 22.4 µM [falling, single point].

With `COCc1cc(=O)n2[nH]c(-c3ccc(C)cc3)cc2n1`, the concentration at half-maximal activity (AC50) under setting [1] was 5.8 µM [falling, partial curve].

`Cc1cccc(NC(=S)NCc2ccc3c(c2)cc(C)n3C)c1C`: the AC50 under setting [2] was 5.62 µM [falling, single point]. For the molecule `Cc1nnc(SCC(=O)NCc2ccccc2)[nH]c1=O`, under setting [1], the AC50 is 29.1 µM [rising, single point].

For the molecule `COc1cccc(NC(=O)CNC(=O)c2cccs2)c1`, under setting [1], the AC50 was 16.4 µM [falling, single point]. On the same count and under the same terms, the result for `Cc1cccc(-c2cc(N)n(-c3ccccc3)n2)c1` reads 15.8 µM [falling, partial curve, poor fit]; that for `COc1ccc(F)cc1S(=O)(=O)N1CCCC(C)C1` (stereo unspecified), 0.184 µM [falling, full curve].

As to `COCCOC(=O)C1=C(N)OC2=C(C(=O)CC(C)(C)C2)C1c1cccnc1` (stereo unspecified), the half-maximal activity concentration (AC50) under setting [1] is 3.26 µM [rising, single point]. Turning to `CCOC(=O)C1=C(C)NC(=S)N(C(C)=O)C1c1ccccc1` (stereo unspecified), the AC50 is, setting by setting: under setting [1], 20.6 µM [falling, single point]; under setting [2], 20.6 µM [rising, partial curve, poor fit]. In the case of `CC(=O)c1cccc(NC(=O)c2csc3c2CCCCC3)c1`, the AC50 under setting [1] is 17.8 µM [rising, partial curve, poor fit]. On the same count and under the same terms, for `CCOC(=O)Cc1c(C)nc2c(C#N)c(C)nn2c1C` the value was 29.1 µM [falling, single point]; for `Cc1cccc(C(=O)Nc2ccc3c(c2)nc(C)n3C)c1`, 17.8 µM [falling, partial curve]. The same measure, in the same setting: the result for `CC(CC(=O)Nc1ccccc1C(F)(F)F)c1ccccc1` (stereo unspecified) reads 16.4 µM [rising, single point]; that for `COc1cccc(/C=N/Nc2nnc(C)n2N)c1OCc1ccccc1Cl`, 29.1 µM [falling, single point]; that for `CCCCN(Cc1ccco1)C(=O)C1CCCN(c2ncnc3c2nc2n3CCCCC2)C1` (stereo unspecified), 14.1 µM [falling, single point]. On to `CCc1c(C(=O)NNC(=S)Nc2ccc(S(=O)(=O)Nc3ncccn3)cc2)csc1C`, for which the AC50 under setting [1] was 12.6 µM [falling, partial curve]. The same measure, in the same setting: the result for `CCc1cc[n+](C2=C([O-])c3ccccc3C(=O)/C2=N\S(=O)(=O)c2cccs2)cc1` reads 16.4 µM [falling, partial curve, poor fit]; that for `COc1cc2c(cc1OC)C(c1cccc(C)c1)CC(=O)N2` (stereo unspecified), 3.16 µM [rising, partial curve]. Take `Nc1nccnc1C(=O)OCC(=O)Nc1cccc(S(=O)(=O)N2CCCCC2)c1`: under setting [1], the AC50 is 16.4 µM [falling, single point]. On the same count and under the same terms, the result for `COc1ccccc1NC(=O)C(=O)N/N=C(\C)CC(=O)Nc1ccccc1C(F)(F)F` reads 2.24 µM [falling, full curve]; that for `COc1ccc(C2=NS(=O)(=O)N(C)C(C(=O)Nc3ccc4c(c3)OCO4)=C2)cc1OC`, 11.2 µM [falling, partial curve, poor fit]; that for `O=C(NC(=S)NNC(=O)c1ccccc1O)c1ccccc1`, 10 µM [falling, partial curve]. Same read-out and setting: for `O=C1N(c2ccccc2)CCN1c1ccccc1` the value was 0.0891 µM [rising, full curve, poor fit]; for `O=C(/C=C/c1ccccc1)NCCSCc1ccc(Cl)cc1`, 29.1 µM [rising, single point].

Regarding `Cc1cc(CNC(=O)c2ccc3c(c2)OCO3)c2ccccc2n1`, the concentration at half-maximal activity (AC50) by setting is: under setting [1], 35.5 µM [rising, single point]; under setting [2], 25.1 µM [falling, single point]. For the molecule `CC(Sc1nnc(-c2cccs2)n1Cc1ccccc1)C(=O)NCc1ccc2c(c1)OCO2` (stereo unspecified), the AC50 under setting [1] is 0.517 µM [falling, full curve, poor fit]. Same read-out and setting: for `O=C(c1ccco1)N1CCN(CC2CC3C=CC2C3)CC1` (stereo unspecified) the value was 20.6 µM [rising, single point]; for `C/C(Cl)=C\Cn1c(O)c(N=O)c2ccccc21`, 1.78 µM [rising, full curve].

These data come from PubChem BioAssay AID493014 (National Center for Advancing Translational Sciences (NCATS), 2011).
